Taken from: PubChem BioAssay AID504764 (Drosophila RNAi Screening Center, 2011)
The deposit covers about 22,000 reagents; shown is an unselected part of those that have a named target and a result. Of all reagents, 403 (1.9%) were called active. 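Unnormalised raw counts per well; ratio z-scores behind the hit calls and whether each hit raises or lowers signal are not deposited.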 The numbers tell different reagents against one gene apart. The record does not give: the amount of reagent.

- Purpose: 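Genome-wide screen for regulators of Notch-driven gene expression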 (primary screen)
- System: Drosophila Kc167 cells
- Reagent: long dsRNA against Drosophila genes
- Time to read-out: about 5 days (4 days dsRNA, then 24 h after transfection)
- Conditions: transfection of constitutively active membrane-tethered Notch lacking the extracellular domain, read 24 h later
- Measured: 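Firefly luciferase from an E(spl)m3 reporter with active Notch, plus control-promoter and uninduced reporter wells for normalisation; unnormalised counts, duplicate wells a and b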
- Direction: induced reporter light, run 1, well a and induced reporter light, run 1, well b: higher = more light from the Notch target reporter with active Notch; control promoter light, run 1, well a and control promoter light, run 1, well b: higher = more light from the viral control promoter (cell number, transfection, viability); uninduced reporter light, run 1, well a: higher = more light from the Notch target reporter without active Notch
- Rule for the call: 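Wells with low control signal or poorly matching duplicates excluded; duplicates averaged; per source plate, z beyond ±2 for induced/control log2 ratio or beyond ±1.8 for induced/uninduced marks a hit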
- Meaning of the calls: active = modifier hit (raised or lowered Notch signal); inactive = not a hit

Against CG31559 #1, the values are induced reporter light, run 1, well a = 76790; induced reporter light, run 1, well b = 91400; control promoter light, run 1, well a = 70230; control promoter light, run 1, well b = 79655; uninduced reporter light, run 1, well a = 5590; inactive.
CG31559 #2 gave induced reporter light, run 1, well a = 32980; induced reporter light, run 1, well b = 29255; control promoter light, run 1, well a = 23560; control promoter light, run 1, well b = 26435; uninduced reporter light, run 1, well a = 1910; inactive.
With knock-down of Tsp47F, the record shows induced reporter light, run 1, well a = 78810; induced reporter light, run 1, well b = 78230; control promoter light, run 1, well a = 1.33e5; control promoter light, run 1, well b = 1.10e5; uninduced reporter light, run 1, well a = 9265; inactive.
PolA2 scored induced reporter light, run 1, well a = 1.49e5; induced reporter light, run 1, well b = 1.27e5; control promoter light, run 1, well a = 2.05e5; control promoter light, run 1, well b = 1.62e5; uninduced reporter light, run 1, well a = 13310; inactive.

Ordered by “induced reporter light, run 1, well b” (lowest first): 2 of the entries above
CG31559 #2 → induced reporter light, run 1, well a: 32980; induced reporter light, run 1, well b: 29255; control promoter light, run 1, well a: 23560; control promoter light, run 1, well b: 26435; uninduced reporter light, run 1, well a: 1910; outcome: inactive
CG31559 #1 → induced reporter light, run 1, well a: 76790; induced reporter light, run 1, well b: 91400; control promoter light, run 1, well a: 70230; control promoter light, run 1, well b: 79655; uninduced reporter light, run 1, well a: 5590; outcome: inactive

More entries:
hng1 gave induced reporter light, run 1, well a = 91635; induced reporter light, run 1, well b = 84365; control promoter light, run 1, well a = 60435; control promoter light, run 1, well b = 69395; uninduced reporter light, run 1, well a = 5920; inactive.
CG6511 gave induced reporter light, run 1, well a = 3.38e5; induced reporter light, run 1, well b = 2.41e5; control promoter light, run 1, well a = 2.07e5; control promoter light, run 1, well b = 3.63e5; uninduced reporter light, run 1, well a = 11465; inactive.
For CG11180 the deposit lists induced reporter light, run 1, well a = 89195; induced reporter light, run 1, well b = 78480; control promoter light, run 1, well a = 1.40e5; control promoter light, run 1, well b = 1.64e5; uninduced reporter light, run 1, well a = 7505; inactive.
Knock-down of CYLD resulted in: induced reporter light, run 1, well a = 1.17e5; induced reporter light, run 1, well b = 1.48e5; control promoter light, run 1, well a = 71740; control promoter light, run 1, well b = 99770; uninduced reporter light, run 1, well a = 18510; inactive.
Against hyd, the values are induced reporter light, run 1, well a = 52670; induced reporter light, run 1, well b = 43550; control promoter light, run 1, well a = 52005; control promoter light, run 1, well b = 34790; uninduced reporter light, run 1, well a = 3205; inactive.
Against CG7168 the deposit lists induced reporter light, run 1, well a = 1.69e5; induced reporter light, run 1, well b = 2.23e5; control promoter light, run 1, well a = 2.58e5; control promoter light, run 1, well b = 2.73e5; uninduced reporter light, run 1, well a = 17250; inactive.
With knock-down of CG11722, the screen gave induced reporter light, run 1, well a = 87630; induced reporter light, run 1, well b = 1.28e5; control promoter light, run 1, well a = 1.10e5; control promoter light, run 1, well b = 83790; uninduced reporter light, run 1, well a = 6265; inactive.
With knock-down of MED16, the screen gave induced reporter light, run 1, well a = 10678; induced reporter light, run 1, well b = 8280; control promoter light, run 1, well a = 15030; control promoter light, run 1, well b = 15705; uninduced reporter light, run 1, well a = 645; inactive.
